# Laboratory results as given in PubChem BioAssay AID720504 (National Center for Advancing Translational Sciences (NCATS), 2013).
# Amino acid sequences for entries named in this document (tags omitted).
# UniProt P53350, whole entry, looked up: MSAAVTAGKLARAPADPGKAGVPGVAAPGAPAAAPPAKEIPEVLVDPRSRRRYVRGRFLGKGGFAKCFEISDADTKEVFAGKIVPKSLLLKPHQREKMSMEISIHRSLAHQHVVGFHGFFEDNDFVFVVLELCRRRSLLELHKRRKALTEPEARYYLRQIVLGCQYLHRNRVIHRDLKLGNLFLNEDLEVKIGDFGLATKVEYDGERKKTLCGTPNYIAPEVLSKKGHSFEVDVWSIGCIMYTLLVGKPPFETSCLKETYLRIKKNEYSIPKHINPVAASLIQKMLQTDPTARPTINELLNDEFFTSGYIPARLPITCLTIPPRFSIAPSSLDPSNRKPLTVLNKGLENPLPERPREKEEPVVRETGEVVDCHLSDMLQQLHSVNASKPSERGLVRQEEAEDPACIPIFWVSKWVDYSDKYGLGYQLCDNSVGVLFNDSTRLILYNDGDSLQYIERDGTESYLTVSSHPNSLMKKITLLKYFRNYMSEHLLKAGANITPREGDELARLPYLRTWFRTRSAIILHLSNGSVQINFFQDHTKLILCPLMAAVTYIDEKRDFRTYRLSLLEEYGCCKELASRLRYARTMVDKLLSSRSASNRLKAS
# In all, about 360,000 compounds went through this assay and about 10,000 (2.8%) were called active. Inconclusive results, whose numbers are uncertain, are shown with a selection of clear calls. The call rests on the fitted dose curve; in most records, active means well fitted inhibition curve with a large enough effect; inconclusive means small, poorly fitted or top-dose-only effect; inactive means flat fitted curve, though single readings scatter. A potency beside an inconclusive call is a rough fit, not a confirmed value.
# Target: Serine/threonine-protein kinase PLK1 (Homo sapiens) (UniProt P53350)
# Assay: qHTS for Inhibitors of PLK1-PDB (polo-like kinase 1 - polo-box domain): Primary Screen; further: nearly all actives have a fitted effect of over 65% in size; on max response, negative = inhibition: series mostly up to about 57 µM
# Settings: Plk1 PBD binding of FITC phosphopeptide, fluorescence polarization
# On the % scale 0 is the no-effect control and ±100 the full control effect; potency means the concentration at half of the fitted maximal effect.
Structure (SMILES),Potency,"max response, negative = inhibition"
COc1cc(/C=N/NS(=O)(=O)c2ccc(C(C)(C)C)cc2)cc([N+](=O)[O-])c1O,"inconclusive: 33.6 µM [inhibitor, partial curve]",
Cc1cc(C(=O)c2ccc3ccccc3c2)c(C)o1,"inconclusive: 23.8 µM [inhibitor, partial curve]",
O=c1[nH]c2ccccc2nc1/C=C(\O)c1cccs1,"inconclusive: 33.6 µM [inhibitor, single point]",
O=C(N/N=C/c1ccc([N+](=O)[O-])o1)c1cn(-c2ccccc2)nc1-c1ccccc1,,inactive: -6.66%
Cc1ccccc1[C@H](NC1c2ccccc2C=Cc2ccccc21)P(=O)(c1ccccc1)c1ccccc1,,inactive: -2.14%
CC1=C(C(=O)OCc2ccccc2)C(c2ccccc2[N+](=O)[O-])NC(=O)N1C (stereo not drawn),,inactive: -5.28%
COc1ccc(CCNC(=O)CCCCCNc2nc(=S)[nH]c3ccccc23)cc1OC,,inactive: -17%
CC(=O)c1cccc(NC(=O)c2ccc(N(C)S(C)(=O)=O)cc2)c1,,inactive: -0.346%
Cn1c(N)c(C(=O)COC(=O)C2(c3ccc(F)cc3)CCCC2)c(=O)n(C)c1=O,,inactive: -5.94%
O=C(CSc1nnc(CNC(=O)c2ccco2)o1)Nc1ccccc1F,active: 21.2 µM,
CCC(C(=O)O/N=C(\N)c1ccccc1)c1ccccc1 (stereo not drawn),"inconclusive: 37.7 µM [inhibitor, single point]",
CC(C)OP(=O)(OC(C)C)C(O)c1cccc([N+](=O)[O-])c1 (stereo not drawn),,inactive: 1.74%
CC(=O)N1CCOc2ccc(S(=O)(=O)N3CCC(C(=O)NCc4ccc(C)cc4)CC3)cc21,,inactive: -19.2%
CSc1nc(-c2ccco2)cc(C(F)(F)F)c1C#N,active: 16.8 µM,
C=CCOc1ccc(C2NC(=S)NC3=C2CCc2ccccc23)cc1 (stereo not drawn),"inconclusive: 23.8 µM [inhibitor, partial curve]",
CCCCS(=O)(=O)Nc1ccc(C)cn1,active: 21.2 µM,
CCOC(=O)CSc1nnc(CNc2nc(-c3ccccc3)cs2)n1C,"inconclusive: 29.9 µM [inhibitor, partial curve]",
CCN(CC)C(=O)c1sc2nc(Cc3ccccc3)[nH]c(=O)c2c1C,active: 29.9 µM,
CCN1CC(O)=C(c2nc3ccccc3s2)C1=N,"inconclusive: 8.44 µM [inhibitor, single point]",
CCOC(=O)N1CCC(=NNS(=O)(=O)c2cccc([N+](=O)[O-])c2)CC1,"inconclusive: 35.5 µM [inhibitor, partial curve]",
N#Cc1ccccc1,,inactive: -17.9%
CC1=NNC(=O)C1Cc1ccccc1 (stereo not drawn),,inactive: -8.49%
O=C1/C(=C/c2ccncc2)SC(=S)N1C1CCS(=O)(=O)C1 (stereo not drawn),"inconclusive: 29.9 µM [inhibitor, single point]",
COc1ccc(/C(C)=N/N=C2/NC(=O)CC(C(=O)O)S2)cc1 (stereo not drawn),active: 11.9 µM,

Structure (SMILES),Potency,"max response, negative = inhibition"
COc1ccc(CCNC(=O)CSc2nc3ncccc3[nH]2)c(OC)c1,,inactive: -20.6%
CCOC(=O)c1c(C)oc2c1C(=O)c1ccccc1C2=O,,inconclusive: -34.9% [inhibitor]
c1ccc2c(c1)OCC(c1nnc3sc(-c4ccc5c(c4)OCO5)nn13)O2 (stereo not drawn),active: 6.7 µM,
CC1=CCC(C(=O)O)C(C(=O)Nc2ccc(-c3nc4ccc(C)cc4s3)cc2)C1 (stereo not drawn),"inconclusive: 33.6 µM [inhibitor, partial curve]",
Cc1ccc(-n2cccc2/C=C2\C(=N)N3N=C(c4ccco4)SC3=NC2=O)cc1,active: 29.9 µM,
N#CC(C#N)C(c1ccsc1)c1c(-c2ccccc2)[nH][nH]c1=O (stereo not drawn),"inconclusive: 23.8 µM [inhibitor, partial curve]",
O=C(Cc1cccs1)OCC(=O)c1ccco1,"inconclusive: 23.8 µM [inhibitor, partial curve]",
CCCCn1nnc(NC(=O)c2ccc(-c3ccccc3[N+](=O)[O-])o2)n1,,inactive: -2.9%
N#C/C(=C\C1=C(N2CCOCC2)C(=C\c2ccccc2)/CC1)C(=O)Nc1ccccc1F,"inconclusive: 21.2 µM [inhibitor, single point]",
COc1cccc(N2CCN(C(=O)CCS(=O)(=O)c3ccc4c(c3)oc(=O)n4C)CC2)c1,"inconclusive: 23.8 µM [inhibitor, single point]",
CNC(=O)Cn1nc(-c2ccc(C)cc2)c2ccccc2c1=O,active: 11.9 µM,
CC1CCN(C(=O)COC(=O)c2ccc3c(c2)OCO3)CC1,,inactive: 6.13%
COc1ccc(O)c(-c2cc(-c3cccs3)[nH]n2)c1,"inconclusive: 26.7 µM [inhibitor, single point]",
CN=c1scc(C)n1/N=C/c1ccc2c(c1)OCO2,,inactive: -6.6%
COc1ccc(Nc2nnc(SCc3cc([N+](=O)[O-])cc4c3OCOC4)s2)cc1,"inconclusive: 17.8 µM [inhibitor, partial curve]",
CCOc1cccc(C=NNc2ccc(S(=O)(=O)Nc3ccccc3C(=O)O)cc2[N+](=O)[O-])c1O,"inconclusive: 21.2 µM [inhibitor, single point]",
CC(=O)c1ccc(NC(=O)CSc2ccc3nnc(-c4ccccn4)n3n2)cc1,,inactive: -5.67%
COc1cc(CN2CCCC(C(=O)c3ccc4c5c(cccc35)CC4)C2)cc(OC)c1O (stereo not drawn),"inconclusive: 16.8 µM [inhibitor, partial curve]",
COc1ccc(-n2nnnc2-c2cn(C)nc2C(F)(F)F)cc1,"inconclusive: 23.8 µM [inhibitor, partial curve]",
Nc1ncnc2[nH]c(=S)[nH]c12,"inconclusive: 26.7 µM [inhibitor, single point]",
Nc1nc(CN2CCN(c3ccccn3)CC2)nc(Nc2ccc(F)cc2)n1,,inactive: -6.62%
O=C1C=CC(=Nc2ccc(F)cc2)O1,"inconclusive: 29.9 µM [inhibitor, single point]",
NC(=O)c1c(NC(=O)CSc2nnc(-c3ccco3)n2-c2ccccc2)sc2c1CCC2,,inconclusive: -30.5% [inhibitor]
CC(C)NC(=O)Nc1cccc2c1O[C@H](CN(C)S(=O)(=O)c1ccc(F)cc1)[C@@H](C)CN([C@H](C)CO)C2=O,active: 18.9 µM,

# 3 of the compounds above, as tab-separated lines.
Structure (SMILES)	Potency	max response, negative = inhibition
O=C1C=CC(=Nc2ccc(F)cc2)O1	inconclusive: 29.9 µM [inhibitor, single point]	
NC(=O)c1c(NC(=O)CSc2nnc(-c3ccco3)n2-c2ccccc2)sc2c1CCC2		inconclusive: -30.5% [inhibitor]
CC(C)NC(=O)Nc1cccc2c1O[C@H](CN(C)S(=O)(=O)c1ccc(F)cc1)[C@@H](C)CN([C@H](C)CO)C2=O	active: 18.9 µM	

# Further entries.

Structure (SMILES),Potency,"max response, negative = inhibition"
CCN(CC)CCCN1C(=O)C(O)=C(C(=O)c2cc3ccccc3o2)C1c1ccccn1 (stereo not drawn),active: 26.7 µM,
CCOC(=O)Cc1csc(NC(=O)CSc2nnc(C3CC3)n2C)n1,,inactive: 1.11%
COc1ccc(NC(=S)NCc2ccc(S(N)(=O)=O)cc2)c(OC)c1,"inconclusive: 16.8 µM [inhibitor, partial curve]",
CC(=O)c1ccc(OC(=O)C2CC(=O)N(c3cccc(C)c3)C2)cc1 (stereo not drawn),"inconclusive: 29.9 µM [inhibitor, partial curve]",
COc1ccccc1N1C(C)=CC(=C(C#N)c2nc3ccccc3s2)C=C1C,"inconclusive: 23.8 µM [inhibitor, single point]",
CC(=O)Nc1ccc(N2CCCC2)cc1,,inactive: -9.39%
CC(C)(C)C(=O)Nc1sc2c(c1C#N)CCC2,"inconclusive: 21.2 µM [inhibitor, single point]",
CCc1ccc(/C(C)=N/NC(=O)CNC(=O)/C=C/c2ccco2)cc1,"inconclusive: 21.2 µM [inhibitor, partial curve]",
C=CCn1c(=O)/c(=C/c2ccc(C)o2)s/c1=C(/C#N)C(=O)c1ccccc1,"inconclusive: 37.7 µM [inhibitor, single point]",
c1ccc(C2(c3ccccc3)OCC(Cn3cncn3)O2)cc1 (stereo not drawn),"inconclusive: 23.8 µM [inhibitor, single point]",
CC1S/C(=C(\C#N)C(N)=O)N(c2ccc(F)cc2)C1=O (stereo not drawn),"inconclusive: 23.8 µM [inhibitor, partial curve]",
COc1ccc(-c2nc(CS(=O)CC(=O)NC3CCC(C)CC3)c(C)o2)cc1OC (stereo not drawn),"inconclusive: 26.7 µM [inhibitor, partial curve]",
N#Cc1c(SCC(=O)Nc2cccc(C(F)(F)F)c2)sc2c(O)cc(=O)[nH]c12,active: 13.4 µM,
O=c1c(/C=N/OCc2ccc(Cl)cc2Cl)c[nH]n1-c1cccc(Cl)n1,,inactive: -18.3%
CCOCCn1c(CC)nc2ccccc21,,inactive: -11.1%
CON=C(C(=O)NC1C(=O)N2C(C(=O)O)=C(CSc3nc(=O)c(=O)[nH]n3C)CSC12)c1csc(N)n1 (stereo not drawn),"inconclusive: 21.2 µM [inhibitor, partial curve]",
Oc1ccccc1C(Nc1nccs1)c1ccc2cccnc2c1O (stereo not drawn),"inconclusive: 13.4 µM [inhibitor, partial curve]",
O=C(c1cccc2ccccc12)C1CCCN(C(=O)c2ccc(N3CCOCC3)cc2)C1 (stereo not drawn),"inconclusive: 11.9 µM [inhibitor, partial curve]",
COc1ccc2ccccc2c1/C=N\NC(=O)c1ccc(C)s1,,inactive: 2.52%
Cc1ccc(S(=O)(=O)N/N=C/c2ccc3nccnc3c2)cc1,"inconclusive: 16.8 µM [inhibitor, partial curve]",
Cc1ccc(CNC(=O)CC(C)S(=O)(=O)c2ccc3c(c2)NC(=O)CS3)o1 (stereo not drawn),"inconclusive: 8.44 µM [inhibitor, single point]",
Cc1ccc2c(c1)C(=O)CCCCC(=O)N2,,inactive: -10.2%
COc1cccc(/C(O)=C/c2nc3ccc(C(=O)NCCc4ccc(Cl)cc4)cc3[nH]c2=O)c1,"inconclusive: 15 µM [inhibitor, partial curve]",
Cc1ccc(-c2nn3c(C)nnc3s2)cc1NC(=O)c1ccc(-c2cccc(Cl)c2)o1,"inconclusive: 15.8 µM [inhibitor, partial curve]",inactive: -19.1%
